Paper PMC11796410
Results are given in words; binding and its absence hold for the method and conditions named. Binding seen in cells or lysates may run through a third protein. Binding calls can cover weak binding; strength is not graded here.

The chains behind the UniProt entries cited, without tags or fusion partners.
UniProt Q5AGW7: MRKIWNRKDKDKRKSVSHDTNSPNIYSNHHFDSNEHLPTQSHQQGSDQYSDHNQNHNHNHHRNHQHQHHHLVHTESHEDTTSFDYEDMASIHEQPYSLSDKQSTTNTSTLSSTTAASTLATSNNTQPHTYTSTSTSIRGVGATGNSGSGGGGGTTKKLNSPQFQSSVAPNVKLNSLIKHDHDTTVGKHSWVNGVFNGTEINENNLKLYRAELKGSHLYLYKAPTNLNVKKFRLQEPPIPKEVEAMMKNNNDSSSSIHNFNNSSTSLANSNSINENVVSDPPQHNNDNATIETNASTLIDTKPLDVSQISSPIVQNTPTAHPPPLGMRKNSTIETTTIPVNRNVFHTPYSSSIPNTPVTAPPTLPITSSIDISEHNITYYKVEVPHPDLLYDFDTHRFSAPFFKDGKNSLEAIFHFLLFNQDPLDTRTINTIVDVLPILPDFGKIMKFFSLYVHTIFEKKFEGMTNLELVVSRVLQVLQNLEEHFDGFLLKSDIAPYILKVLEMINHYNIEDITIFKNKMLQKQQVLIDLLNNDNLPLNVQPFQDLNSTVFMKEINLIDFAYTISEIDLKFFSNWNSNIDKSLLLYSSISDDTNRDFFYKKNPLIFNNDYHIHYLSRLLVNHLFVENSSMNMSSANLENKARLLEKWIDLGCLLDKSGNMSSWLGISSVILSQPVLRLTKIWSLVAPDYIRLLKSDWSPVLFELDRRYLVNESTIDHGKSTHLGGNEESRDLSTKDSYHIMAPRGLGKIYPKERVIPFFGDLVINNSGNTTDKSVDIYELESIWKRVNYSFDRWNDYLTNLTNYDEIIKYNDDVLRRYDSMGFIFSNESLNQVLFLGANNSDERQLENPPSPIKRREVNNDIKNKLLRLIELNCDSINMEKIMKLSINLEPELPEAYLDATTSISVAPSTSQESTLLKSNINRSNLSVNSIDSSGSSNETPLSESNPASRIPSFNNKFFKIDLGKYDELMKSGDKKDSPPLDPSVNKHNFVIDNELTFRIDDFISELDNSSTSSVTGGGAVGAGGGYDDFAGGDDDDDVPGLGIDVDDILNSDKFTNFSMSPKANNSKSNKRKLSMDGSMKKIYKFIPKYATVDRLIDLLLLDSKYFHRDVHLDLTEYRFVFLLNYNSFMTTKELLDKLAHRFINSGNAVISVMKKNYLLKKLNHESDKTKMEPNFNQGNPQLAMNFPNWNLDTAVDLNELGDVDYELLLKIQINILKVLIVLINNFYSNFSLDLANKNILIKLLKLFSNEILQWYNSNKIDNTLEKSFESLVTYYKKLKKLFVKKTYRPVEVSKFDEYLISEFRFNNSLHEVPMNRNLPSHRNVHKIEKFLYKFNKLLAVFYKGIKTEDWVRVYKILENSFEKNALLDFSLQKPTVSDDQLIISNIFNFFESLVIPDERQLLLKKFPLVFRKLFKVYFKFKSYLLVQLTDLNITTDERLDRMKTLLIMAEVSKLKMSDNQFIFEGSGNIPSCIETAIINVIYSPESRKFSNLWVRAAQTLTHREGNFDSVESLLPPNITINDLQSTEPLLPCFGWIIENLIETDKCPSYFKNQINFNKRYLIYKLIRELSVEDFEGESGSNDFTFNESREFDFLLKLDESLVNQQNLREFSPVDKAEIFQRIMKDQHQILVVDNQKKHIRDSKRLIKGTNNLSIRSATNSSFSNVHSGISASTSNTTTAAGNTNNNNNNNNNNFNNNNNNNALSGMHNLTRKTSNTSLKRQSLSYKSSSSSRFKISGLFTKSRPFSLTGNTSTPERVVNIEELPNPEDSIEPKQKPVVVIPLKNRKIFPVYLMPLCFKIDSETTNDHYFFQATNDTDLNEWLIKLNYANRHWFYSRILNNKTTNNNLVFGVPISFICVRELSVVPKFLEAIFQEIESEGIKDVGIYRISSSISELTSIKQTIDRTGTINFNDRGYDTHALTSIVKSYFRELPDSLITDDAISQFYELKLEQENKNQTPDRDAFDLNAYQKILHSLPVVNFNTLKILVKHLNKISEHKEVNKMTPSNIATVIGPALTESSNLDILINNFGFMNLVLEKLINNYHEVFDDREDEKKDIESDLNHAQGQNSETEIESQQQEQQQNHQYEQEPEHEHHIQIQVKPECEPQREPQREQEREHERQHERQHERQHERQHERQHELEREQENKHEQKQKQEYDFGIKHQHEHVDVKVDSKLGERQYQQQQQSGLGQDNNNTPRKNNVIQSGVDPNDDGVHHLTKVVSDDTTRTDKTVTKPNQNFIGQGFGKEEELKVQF

How the values were obtained:
Bem2-HA (C. albicans) = Bem2-HA (C. albicans) (UniProt Q5AGW7); test: co-IP
Myc-Sdd3 (C. albicans) = Myc-Sdd3 (C. albicans) (UniProt Q59R27); test: co-IP

Substance	binding (Bem2-HA (C. albicans))	binding (Myc-Sdd3 (C. albicans))
Myc-Sdd3 (from UniProt Q59R27)	binds	
Bem2-HA (from UniProt Q5AGW7 1-2252)		binds
